Reference: PubChem BioAssay AID652243 (Drosophila RNAi Screening Center, 2013)
The deposit covers about 24,000 reagents; shown is a random part of those that have a named target and a result. Over the whole deposit, 246 (1%) got an active call. 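Plates not normalised; calls are printed but the firefly/Renilla ratio behind them is not deposited; fold cut for lowering reported inconsistently.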 Raw values vary from plate to plate and are shown uncorrected. Reagents against one gene are numbered here. Names joined by + are all predicted targets of the reagent. No sequences are given here. Not given: the amount of reagent.

- Assay: 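Knock-downs that decrease or increase androgen receptor reporter signal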 (primary screen)
- Cell system: Drosophila S2R+ cells
- Knock-down reagent: long dsRNA against Drosophila genes
- Timing: 72 h (48 h, then 24 h hormone)
- Challenge: synthetic androgen R1881 at 10 nM for 24 h
- Measured: 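Firefly light from an androgen-responsive reporter and Renilla control light per well, raw and unnormalised, for each of two replicates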
- Reading the numbers: firefly reporter light: higher = more light from androgen-responsive reporter; Renilla control light: higher = more constitutive control signal (cell number, transfection)
- Hit rule: 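Across duplicate plates, a knock-down whose log firefly/Renilla ratio shifted a set fold down or up from the GFP/LacZ control mean was a hit; the downward cut appears as both 1.5 and 3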
- Calls: active = hit: reporter lowered or raised; inactive = no hit

no.	Target gene	dsRNA no.	firefly reporter light, replicate 1	firefly reporter light, replicate 2	Renilla control light, replicate 1	Renilla control light, replicate 2	outcome
1	CG13842	1	1.45e5	2.15e5	2.35e6	2.25e6	inactive
2	CG3916	1	1.13e5	1.60e5	1.42e6	1.39e6	inactive
3	CG3916	2	3.94e5	3.01e5	4.72e5	3.29e5	inactive
4	CG1946	1	4.19e5	5.04e5	1.98e6	1.60e6	inactive
5	CG1946	2	2.30e5	7.93e5	6.79e5	1.59e6	inactive
6	Mst84Dd	1	77665	55323	1.79e6	1.96e6	inactive
7	Mst84Dd	2	6.49e5	4.57e5	6.30e5	5.86e5	inactive
8	Cyp9c1	1	7.42e5	7.63e5	9.62e5	1.08e6	inactive
9	Ac76E	1	1.69e5	1.22e5	4.70e5	3.38e5	inactive
10	Ac76E	2	63793	65668	5.92e5	4.11e5	inactive
11	CG31088	1	1.59e5	1.12e5	2.55e5	2.48e5	inactive
12	CG31088	2	6.31e5	5.70e5	7.62e5	9.43e5	inactive
13	CG5969	1	60040	59753	4.25e5	4.24e5	inactive
14	CG5969	2	4.93e5	3.64e5	8.02e5	7.03e5	inactive
15	Hr4	1	62347	71799	1.17e6	8.17e5	inactive
16	Hr4	2	9.58e5	1.34e6	1.46e6	2.23e6	inactive
17	Hr4	3	7.21e5	9.53e5	1.63e6	1.77e6	inactive
18	Hr4	4	7.52e5	1.06e6	5.03e5	5.91e5	inactive
19	Hr4	5	7.95e5	3.53e5	3.55e6	1.40e6	inactive
20	Hr4	6	5.23e5	7.87e5	1.32e6	2.45e6	inactive
21	grnd	1	1.68e5	1.08e5	1.45e6	8.05e5	inactive
22	CG13712	1	1.82e5	1.54e5	2.16e6	2.81e6	inactive
23	La	1	78649	1.18e5	1.15e6	8.56e5	inactive
24	2SrRNA-Psi:CR40677	1	8.16e5	8.73e5	1.74e6	2.10e6	inactive
25	plu	1	58292	98880	1.00e6	1.11e6	inactive
26	CG2269	1	7.19e5	5.54e5	1.11e6	1.23e6	inactive
27	CG7328	1	3.06e5	2.07e5	2.03e6	1.74e6	inactive
28	CG7328	2					inactive
29	KaiR1D	1	1.88e5	3.15e5	3.79e6	3.94e6	inactive
30	fy	1	1.73e5	1.23e5	1.59e6	1.39e6	inactive
31	fy	2	2.76e5	3.85e5	8.22e5	9.21e5	inactive
32	CG9628	1	8.99e5	6.38e5	2.08e6	1.81e6	inactive
33	CG9628	2	3.91e5	3.22e5	5.75e5	6.04e5	inactive
34	CG17198 + CG17197	1	1.98e5	1.86e5	2.43e6	2.53e6	inactive
35	CG17198 + CG17197	2	1.90e5	2.49e5	2.07e6	1.86e6	inactive
36	CG31515	1	1.24e5	1.46e5	2.74e5	2.62e5	inactive
37	Dscam2	1	1.23e5	1.24e5	1.51e6	1.82e6	inactive
38	Dscam2	2	1.48e5	82077	1.75e6	1.10e6	inactive
39	Dscam2	3	1.71e5	1.45e5	2.16e6	2.04e6	inactive
40	Dscam2	4	4.02e5	3.19e5	9.71e5	1.06e6	inactive
41	Dscam2	5	2.44e5	3.16e5	6.48e5	4.47e5	inactive
42	Dscam2	6	3.15e5	4.40e5	8.08e5	1.36e6	inactive
43	MICU3	1	1.73e5	39940	2.42e5	88613	inactive
44	MICU3	2	1.20e5	1.21e5	1.10e6	1.38e6	inactive
45	mxt	1	9.13e5	8.56e5	4.45e5	4.86e5	inactive
46	CG34442	1	7.90e5	7.17e5	2.08e6	2.21e6	inactive
47	Dlip3	1	44425	53413	1.20e6	1.20e6	inactive
48	Dlip3	2	4.25e5	4.07e5	8.32e5	8.32e5	inactive
49	shep	1	1.64e5	1.86e5	1.84e6	2.58e6	inactive
50	shep	2	7.47e5	5.09e5	1.23e6	1.13e6	inactive
51	shep	3	9.84e5	6.49e5	1.01e6	8.53e5	inactive
52	nito	1	6.90e5	6.24e5	1.47e6	1.32e6	inactive
53	CG11406	1	1.24e5	1.81e5	99469	1.43e5	inactive
54	CG11406	2	3.18e5	4.35e5	2.35e6	2.64e6	inactive
55	lmd	1	54824	59960	3.83e5	4.87e5	inactive
56	lmd	2	5.28e5	4.08e5	1.01e6	9.86e5	inactive
57	CG12206	1	1.09e6	1.34e6	6.60e5	6.75e5	inactive
58	Pez	1	2.33e5	2.26e5	1.96e6	1.75e6	inactive
59	Pez	2	6.03e5	4.57e5	1.31e6	1.34e6	inactive
60	Pez	3					inactive
61	CG11686	1	41394	47635	8.32e5	1.04e6	inactive
62	Or59b	1	2.50e5	2.49e5	1.95e6	1.39e6	inactive
63	Cpr76Bb	1	2.24e5	1.98e5	2.27e6	1.88e6	inactive
64	Cpr76Bb	2	5.00e5	9.27e5	1.25e6	1.93e6	inactive
65	Cpr76Bb	3	6.82e5	8.98e5	1.05e6	1.23e6	inactive
66	drk	1	8.39e5	1.14e6	9.11e5	1.19e6	inactive
67	drk	2	5.84e5	4.50e5	1.53e6	9.65e5	inactive
68	HmgD	1	9.45e5	1.02e6	2.85e6	2.65e6	inactive
69	HmgD	2	4.21e5	3.64e5	5.21e5	5.65e5	inactive
70	PAN2	1	8.30e5	1.04e6	1.17e6	1.18e6	inactive
71	PPP4R2r	1	3.53e5	2.92e5	2.52e6	2.73e6	inactive
72	PPP4R2r	2	7.65e5	5.42e5	3.23e6	2.15e6	inactive
73	PPP4R2r	3	2.05e5	1.52e5	2.64e5	5.10e5	active
74	angel	1	7.39e5	5.68e5	8.80e5	8.25e5	inactive
75	angel	2	8.51e5	9.10e5	1.51e6	1.11e6	inactive

Reformatted: 11 of the entries above.
CG11406 #1 → firefly reporter light, replicate 1 = 1.24e5; firefly reporter light, replicate 2 = 1.81e5; Renilla control light, replicate 1 = 99469; Renilla control light, replicate 2 = 1.43e5; outcome = inactive
CG11406 #2 → firefly reporter light, replicate 1 = 3.18e5; firefly reporter light, replicate 2 = 4.35e5; Renilla control light, replicate 1 = 2.35e6; Renilla control light, replicate 2 = 2.64e6; outcome = inactive
lmd #1 → firefly reporter light, replicate 1 = 54824; firefly reporter light, replicate 2 = 59960; Renilla control light, replicate 1 = 3.83e5; Renilla control light, replicate 2 = 4.87e5; outcome = inactive
lmd #2 → firefly reporter light, replicate 1 = 5.28e5; firefly reporter light, replicate 2 = 4.08e5; Renilla control light, replicate 1 = 1.01e6; Renilla control light, replicate 2 = 9.86e5; outcome = inactive
CG12206 → firefly reporter light, replicate 1 = 1.09e6; firefly reporter light, replicate 2 = 1.34e6; Renilla control light, replicate 1 = 6.60e5; Renilla control light, replicate 2 = 6.75e5; outcome = inactive
Pez #1 → firefly reporter light, replicate 1 = 2.33e5; firefly reporter light, replicate 2 = 2.26e5; Renilla control light, replicate 1 = 1.96e6; Renilla control light, replicate 2 = 1.75e6; outcome = inactive
Pez #2 → firefly reporter light, replicate 1 = 6.03e5; firefly reporter light, replicate 2 = 4.57e5; Renilla control light, replicate 1 = 1.31e6; Renilla control light, replicate 2 = 1.34e6; outcome = inactive
Pez #3 → outcome = inactive
CG11686 → firefly reporter light, replicate 1 = 41394; firefly reporter light, replicate 2 = 47635; Renilla control light, replicate 1 = 8.32e5; Renilla control light, replicate 2 = 1.04e6; outcome = inactive
Or59b → firefly reporter light, replicate 1 = 2.50e5; firefly reporter light, replicate 2 = 2.49e5; Renilla control light, replicate 1 = 1.95e6; Renilla control light, replicate 2 = 1.39e6; outcome = inactive
Cpr76Bb #1 → firefly reporter light, replicate 1 = 2.24e5; firefly reporter light, replicate 2 = 1.98e5; Renilla control light, replicate 1 = 2.27e6; Renilla control light, replicate 2 = 1.88e6; outcome = inactive
